Results are given in words; binding and its absence hold for the method and conditions named. In cells and extracts the contact can be indirect. Some results given as binding are weak or reduced against the parent protein; the word gives no strength.
Biological target: T1, 14-3-3σ, endogenous, mouse (mouse (endogenous in newborn skin keratinocytes)) (UniProt O70456)
T1 sequence: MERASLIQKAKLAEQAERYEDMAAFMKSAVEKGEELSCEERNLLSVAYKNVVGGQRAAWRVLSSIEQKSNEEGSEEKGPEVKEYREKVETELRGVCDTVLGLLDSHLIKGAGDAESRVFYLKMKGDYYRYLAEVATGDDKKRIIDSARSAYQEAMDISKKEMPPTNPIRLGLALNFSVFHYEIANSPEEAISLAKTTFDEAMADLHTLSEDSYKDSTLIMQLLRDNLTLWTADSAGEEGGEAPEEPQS
Assay: proximity ligation; Duolink in situ PLA for 14-3-3σ and YAP1 in fixed WT and Krt14 C373A newborn mouse keratinocytes in primary culture, 1 mM calcium for 4 days

Chains of the proteins cited; added tags and fusions are not shown.
UniProt P46938: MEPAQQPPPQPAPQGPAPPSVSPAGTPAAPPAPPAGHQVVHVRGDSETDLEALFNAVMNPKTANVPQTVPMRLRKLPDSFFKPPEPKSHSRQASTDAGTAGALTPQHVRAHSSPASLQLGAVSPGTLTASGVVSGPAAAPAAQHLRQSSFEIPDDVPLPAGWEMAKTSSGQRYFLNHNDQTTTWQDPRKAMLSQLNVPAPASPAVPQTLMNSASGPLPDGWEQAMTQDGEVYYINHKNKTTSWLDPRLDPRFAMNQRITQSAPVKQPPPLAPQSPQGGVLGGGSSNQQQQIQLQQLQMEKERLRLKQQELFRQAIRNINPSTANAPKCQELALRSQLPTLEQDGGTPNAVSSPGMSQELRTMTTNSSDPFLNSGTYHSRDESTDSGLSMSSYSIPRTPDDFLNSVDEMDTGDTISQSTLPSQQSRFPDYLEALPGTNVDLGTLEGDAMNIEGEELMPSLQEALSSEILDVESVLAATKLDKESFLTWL

binding: binds
Substance: YAP1, endogenous, mouse (from UniProt P46938 1-488)

Source: paper PMC7250575
